Seven molecules from article PMC11480336 can be followed below.

Protein sequences, listed by entry. Tags and fused reporters are not part of them. Lines headed by an entry give the natural chain unless they say otherwise; changes in a name come on top. Residues count along the entry.
UniProt Q61686: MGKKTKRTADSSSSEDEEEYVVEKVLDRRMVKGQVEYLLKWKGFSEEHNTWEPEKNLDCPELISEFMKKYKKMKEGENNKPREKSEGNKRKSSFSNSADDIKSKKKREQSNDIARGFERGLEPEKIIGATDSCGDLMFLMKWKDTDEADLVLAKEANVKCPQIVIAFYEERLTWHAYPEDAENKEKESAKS
UniProt P45973: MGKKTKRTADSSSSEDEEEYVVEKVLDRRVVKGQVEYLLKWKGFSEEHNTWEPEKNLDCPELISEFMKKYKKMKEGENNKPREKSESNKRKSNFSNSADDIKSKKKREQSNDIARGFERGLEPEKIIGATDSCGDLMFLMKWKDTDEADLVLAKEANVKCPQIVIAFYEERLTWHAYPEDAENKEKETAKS
GST-HP1α-D1 (1–78): residues 1-78 of P45973
GST-HP1α-D3 (122–191): residues 122-191 of P45973
UniProt P63279: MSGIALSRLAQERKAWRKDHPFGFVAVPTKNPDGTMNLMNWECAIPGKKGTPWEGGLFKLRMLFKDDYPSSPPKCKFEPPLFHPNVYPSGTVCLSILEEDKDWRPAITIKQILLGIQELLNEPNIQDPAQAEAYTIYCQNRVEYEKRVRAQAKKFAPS

These are yes or no findings as the source states them, for the method shown. For part of these data: Binding seen in cells or lysates may run through a third protein. Some results given as binding are weak or reduced against the parent protein; the word gives no strength. For part of these data: Tags and fused reporters may be left off the sequences shown.

For test [1], the target named is T1, IRTKS in HEK293T cells (human (endogenous in HEK293T)) (UniProt Q9UHR4).
T1 sequence: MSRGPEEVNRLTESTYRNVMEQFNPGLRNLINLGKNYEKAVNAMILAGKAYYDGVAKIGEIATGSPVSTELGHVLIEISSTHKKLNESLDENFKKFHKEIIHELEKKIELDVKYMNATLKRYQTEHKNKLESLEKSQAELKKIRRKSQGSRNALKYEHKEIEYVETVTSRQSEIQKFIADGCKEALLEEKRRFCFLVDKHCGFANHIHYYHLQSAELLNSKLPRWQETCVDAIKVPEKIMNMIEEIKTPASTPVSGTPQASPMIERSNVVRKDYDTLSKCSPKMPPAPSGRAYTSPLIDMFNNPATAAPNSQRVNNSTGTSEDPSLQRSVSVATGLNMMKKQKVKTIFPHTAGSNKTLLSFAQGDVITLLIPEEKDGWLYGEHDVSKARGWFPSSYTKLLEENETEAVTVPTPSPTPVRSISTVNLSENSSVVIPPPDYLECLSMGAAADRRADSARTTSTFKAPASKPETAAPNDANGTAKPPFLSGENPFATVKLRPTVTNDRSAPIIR
As to the kind of experiment: co-IP; HEK293T lysate (50 mM Tris-HCl pH 7.5, 150 mM NaCl, 1 mM EDTA, 1 mM DTT, 1% Triton X-100), anti-IRTKS, anti-HP1α or anti-Ubc9 antibody, Protein A/G PLUS-Agarose, 4 °C, immunoblotting; IgG as negative control.

The target of test [2] is T2, IRTKS in mouse embryonic fibroblasts (mouse (endogenous in MEFs)) (UniProt Q9DBJ3).
T2 sequence: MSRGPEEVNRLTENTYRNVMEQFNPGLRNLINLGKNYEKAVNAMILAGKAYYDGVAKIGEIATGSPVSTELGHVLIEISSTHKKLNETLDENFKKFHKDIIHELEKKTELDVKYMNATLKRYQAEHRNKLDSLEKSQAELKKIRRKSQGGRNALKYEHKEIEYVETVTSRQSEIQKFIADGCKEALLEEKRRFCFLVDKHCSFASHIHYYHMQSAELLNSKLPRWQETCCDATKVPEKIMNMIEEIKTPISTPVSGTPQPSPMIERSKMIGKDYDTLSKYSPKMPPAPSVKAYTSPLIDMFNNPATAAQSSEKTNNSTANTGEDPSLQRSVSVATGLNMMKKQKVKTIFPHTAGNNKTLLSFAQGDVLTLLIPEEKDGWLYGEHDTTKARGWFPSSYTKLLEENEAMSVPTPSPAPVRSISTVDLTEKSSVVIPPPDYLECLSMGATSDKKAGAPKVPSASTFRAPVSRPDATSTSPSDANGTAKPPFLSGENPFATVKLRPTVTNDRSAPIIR
As to the kind of experiment: co-IP; MEF lysate (50 mM Tris-HCl pH 7.5, 150 mM NaCl, 1 mM EDTA, 1 mM DTT, 1% Triton X-100), anti-IRTKS or anti-HP1α antibody, Protein A/G PLUS-Agarose, 4 °C, immunoblotting; IgG as negative control. A general note: Immunoblotting shows a protein as a band on a membrane.

Test [3] deals with T3, GST-IRTKS (insulin receptor tyrosine kinase substrate, full length) (UniProt Q9UHR4).
T3 sequence: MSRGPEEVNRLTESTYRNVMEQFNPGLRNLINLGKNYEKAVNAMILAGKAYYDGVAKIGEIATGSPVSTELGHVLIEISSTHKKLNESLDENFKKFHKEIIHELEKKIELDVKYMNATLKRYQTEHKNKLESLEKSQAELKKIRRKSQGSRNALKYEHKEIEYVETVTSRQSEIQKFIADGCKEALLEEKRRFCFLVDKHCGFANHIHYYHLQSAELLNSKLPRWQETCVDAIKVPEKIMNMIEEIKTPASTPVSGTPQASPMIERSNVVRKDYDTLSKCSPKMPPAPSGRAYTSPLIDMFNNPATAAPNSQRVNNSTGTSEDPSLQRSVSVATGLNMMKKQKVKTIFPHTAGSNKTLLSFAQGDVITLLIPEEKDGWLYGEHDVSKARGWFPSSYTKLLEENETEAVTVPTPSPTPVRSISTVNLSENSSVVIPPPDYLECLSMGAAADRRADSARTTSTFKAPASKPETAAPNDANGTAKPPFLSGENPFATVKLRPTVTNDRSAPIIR
As to the kind of experiment: pull-down; beads coated with GST fusion proteins incubated with His-tagged fusion proteins under rotation at 4 °C, washed with ice-cold PBS, eluted with 2× SDS loading buffer, western blotting; both purified.

A further test deals with T4, GST-IRTKS-D2 (250–402) (UniProt Q9UHR4).
T4 sequence: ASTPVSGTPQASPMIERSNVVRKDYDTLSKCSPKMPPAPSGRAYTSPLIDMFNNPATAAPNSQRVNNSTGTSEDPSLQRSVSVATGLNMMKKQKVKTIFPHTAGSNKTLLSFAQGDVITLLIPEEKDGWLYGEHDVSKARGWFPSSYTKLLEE
The description is as above.

A further test deals with T5, GST-IRTKS-D3 (403–511) (UniProt Q9UHR4).
T5 sequence: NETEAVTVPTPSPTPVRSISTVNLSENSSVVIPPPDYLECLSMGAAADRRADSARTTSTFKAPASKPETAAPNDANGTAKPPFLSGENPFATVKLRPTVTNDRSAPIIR
Described as above.

In test [4] the target is HP1α in mouse embryonic fibroblasts (mouse (endogenous in MEFs)) (UniProt Q61686). As to the kind of experiment: co-IP; MEF lysate (50 mM Tris-HCl pH 7.5, 150 mM NaCl, 1 mM EDTA, 1 mM DTT, 1% Triton X-100), anti-IRTKS or anti-HP1α antibody, Protein A/G PLUS-Agarose, 4 °C, immunoblotting; IgG as negative control.
Test [5] concerns the target HP1α in HEK293T cells (human (endogenous in HEK293T)) (UniProt P45973). As to the kind of experiment: co-IP; HEK293T lysate (50 mM Tris-HCl pH 7.5, 150 mM NaCl, 1 mM EDTA, 1 mM DTT, 1% Triton X-100), anti-IRTKS, anti-HP1α or anti-Ubc9 antibody, Protein A/G PLUS-Agarose, 4 °C, immunoblotting; IgG as negative control.
The target in test [6] is Ubc9 in HEK293T cells (human (endogenous in HEK293T)) (UniProt P63279). Described as above.
In test [7] the target is GST-HP1α (heterochromatin protein 1-alpha, full length) (UniProt P45973). As to the kind of experiment: pull-down; beads coated with GST fusion proteins incubated with His-tagged fusion proteins under rotation at 4 °C, washed with ice-cold PBS, eluted with 2× SDS loading buffer, western blotting; both purified.
For another test, the target named is GST-HP1α-D1 (1–78) (UniProt P45973). The test is described as above.
A further test has as its target GST-HP1α-D3 (122–191) (UniProt P45973). The description is as above.

On to “HP1α in HEK293T cells (from UniProt P45973 1-191)”, for which the binding result in test [1] is recorded as “binds”. Take “HP1α in mouse embryonic fibroblasts (from UniProt Q61686 1-191)”: the binding result in [2] was “binds”. Regarding His-HP1α (from UniProt P45973 1-191), the binding entry (in [3]; in the test with GST-IRTKS-D2 (250–402); in the test with GST-IRTKS-D3 (403–511)) was “binds” throughout. For the molecule “Ubc9 in HEK293T cells (from UniProt P63279 1-158) (enzyme)”, the binding entry in test [1] is on record as “binds”.

B1: IRTKS in mouse embryonic fibroblasts (protein, UniProt Q9DBJ3 1-514)
chain: MSRGPEEVNRLTENTYRNVMEQFNPGLRNLINLGKNYEKAVNAMILAGKAYYDGVAKIGEIATGSPVSTELGHVLIEISSTHKKLNETLDENFKKFHKDIIHELEKKTELDVKYMNATLKRYQAEHRNKLDSLEKSQAELKKIRRKSQGGRNALKYEHKEIEYVETVTSRQSEIQKFIADGCKEALLEEKRRFCFLVDKHCSFASHIHYYHMQSAELLNSKLPRWQETCCDATKVPEKIMNMIEEIKTPISTPVSGTPQPSPMIERSKMIGKDYDTLSKYSPKMPPAPSVKAYTSPLIDMFNNPATAAQSSEKTNNSTANTGEDPSLQRSVSVATGLNMMKKQKVKTIFPHTAGNNKTLLSFAQGDVLTLLIPEEKDGWLYGEHDTTKARGWFPSSYTKLLEENEAMSVPTPSPAPVRSISTVDLTEKSSVVIPPPDYLECLSMGATSDKKAGAPKVPSASTFRAPVSRPDATSTSPSDANGTAKPPFLSGENPFATVKLRPTVTNDRSAPIIR
With B1, the binding result in test [4] was “binds”.

B2: IRTKS in HEK293T cells (protein, UniProt Q9UHR4 1-511)
chain: MSRGPEEVNRLTESTYRNVMEQFNPGLRNLINLGKNYEKAVNAMILAGKAYYDGVAKIGEIATGSPVSTELGHVLIEISSTHKKLNESLDENFKKFHKEIIHELEKKIELDVKYMNATLKRYQTEHKNKLESLEKSQAELKKIRRKSQGSRNALKYEHKEIEYVETVTSRQSEIQKFIADGCKEALLEEKRRFCFLVDKHCGFANHIHYYHLQSAELLNSKLPRWQETCVDAIKVPEKIMNMIEEIKTPASTPVSGTPQASPMIERSNVVRKDYDTLSKCSPKMPPAPSGRAYTSPLIDMFNNPATAAPNSQRVNNSTGTSEDPSLQRSVSVATGLNMMKKQKVKTIFPHTAGSNKTLLSFAQGDVITLLIPEEKDGWLYGEHDVSKARGWFPSSYTKLLEENETEAVTVPTPSPTPVRSISTVNLSENSSVVIPPPDYLECLSMGAAADRRADSARTTSTFKAPASKPETAAPNDANGTAKPPFLSGENPFATVKLRPTVTNDRSAPIIR
On to B2, for which the binding result in test [5] and in [6] was “binds” in each case.

B3: His-IRTKS (protein, UniProt Q9UHR4 1-511)
chain: MSRGPEEVNRLTESTYRNVMEQFNPGLRNLINLGKNYEKAVNAMILAGKAYYDGVAKIGEIATGSPVSTELGHVLIEISSTHKKLNESLDENFKKFHKEIIHELEKKIELDVKYMNATLKRYQTEHKNKLESLEKSQAELKKIRRKSQGSRNALKYEHKEIEYVETVTSRQSEIQKFIADGCKEALLEEKRRFCFLVDKHCGFANHIHYYHLQSAELLNSKLPRWQETCVDAIKVPEKIMNMIEEIKTPASTPVSGTPQASPMIERSNVVRKDYDTLSKCSPKMPPAPSGRAYTSPLIDMFNNPATAAPNSQRVNNSTGTSEDPSLQRSVSVATGLNMMKKQKVKTIFPHTAGSNKTLLSFAQGDVITLLIPEEKDGWLYGEHDVSKARGWFPSSYTKLLEENETEAVTVPTPSPTPVRSISTVNLSENSSVVIPPPDYLECLSMGAAADRRADSARTTSTFKAPASKPETAAPNDANGTAKPPFLSGENPFATVKLRPTVTNDRSAPIIR
Regarding B3, the binding entry (in test [7]; with GST-HP1α-D1 (1–78); with GST-HP1α-D3 (122–191)) was “binds” in each case.
